Measurements from article PMC5397071.
These are yes or no findings as the source states them, for the method shown. In cells and extracts the contact can be indirect. These calls come from enrichment with a bait or labelling near it, and not all partners need be listed.

Biological target: T1, MEIOC (mouse (endogenous in testis)) (UniProt A2AG06)
T1 sequence: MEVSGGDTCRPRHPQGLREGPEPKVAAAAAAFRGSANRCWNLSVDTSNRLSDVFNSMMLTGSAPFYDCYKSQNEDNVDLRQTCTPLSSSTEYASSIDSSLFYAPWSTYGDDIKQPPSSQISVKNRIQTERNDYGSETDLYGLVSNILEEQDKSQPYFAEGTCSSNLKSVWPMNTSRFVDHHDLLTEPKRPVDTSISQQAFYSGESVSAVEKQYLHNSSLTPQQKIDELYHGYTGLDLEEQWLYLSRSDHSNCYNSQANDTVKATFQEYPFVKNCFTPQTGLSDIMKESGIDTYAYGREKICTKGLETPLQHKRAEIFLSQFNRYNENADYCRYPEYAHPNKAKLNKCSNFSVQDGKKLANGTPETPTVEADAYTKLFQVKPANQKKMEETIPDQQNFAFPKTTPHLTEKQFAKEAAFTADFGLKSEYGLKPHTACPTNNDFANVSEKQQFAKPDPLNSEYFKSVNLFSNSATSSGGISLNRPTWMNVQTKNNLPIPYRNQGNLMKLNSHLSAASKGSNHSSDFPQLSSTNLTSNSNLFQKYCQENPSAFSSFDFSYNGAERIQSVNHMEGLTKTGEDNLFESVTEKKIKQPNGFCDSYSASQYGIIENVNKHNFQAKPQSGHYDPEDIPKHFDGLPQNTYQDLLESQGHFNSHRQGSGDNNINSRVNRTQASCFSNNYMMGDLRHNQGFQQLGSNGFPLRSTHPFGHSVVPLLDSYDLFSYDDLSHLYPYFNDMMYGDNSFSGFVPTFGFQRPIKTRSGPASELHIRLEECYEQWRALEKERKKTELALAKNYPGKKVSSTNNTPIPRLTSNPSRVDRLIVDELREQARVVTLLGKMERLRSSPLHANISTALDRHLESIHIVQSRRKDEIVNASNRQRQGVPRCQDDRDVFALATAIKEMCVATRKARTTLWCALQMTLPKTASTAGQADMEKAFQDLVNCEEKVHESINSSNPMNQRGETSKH
Test: affinity purification with mass spectrometry; anti-MEIOC antibody crosslinked to Protein G Dynabeads; lysates of P15 mouse testes (wild-type or Meioc-deficient; IgG control); lysis buffer 25mM Tris-HCl pH7.5, 150mM NaCl, 1.5mM MgCl2, 1mM DTT, 0.4% Triton X-100, Benzonase nuclease; TMT quantitative mass spectrometry

binding: binds
B1: YTHDC2 (protein, UniProt B2RR83 1-1445)
chain: MSRPSSVSPRPPAPSGGGTGGGGGGSGGGGGGGGGGPASCGPGGGGRAKGLKDIRIDEEVKIAVNIALERFRYGDQREMEFPSSLTSTERAFIHRLSQSLGLVSKSKGKGANRYLTVKKKDGSETAHAMMTCNLTHNTKHAVRSLIQRFPVTNKERTELLPKTERGNVFAVEAENREMSKTSGRLNNGIPQVPVKRGESEFDSFRQSLPVFEKQEEIVKIIKENKVVLIVGETGSGKTTQIPQFLLDDCFKNGIPCRIFCTQPRRLAAIAVAERVAAERRERIGQTIGYQIRLESRVSPKTLLTFCTNGVLLRTLMAGDSTLSTVTHVIVDEVHERDRFSDFLLTKLRDLLQKHPTLKLILSSAALDVNLFIRYFGSCPVIYIQGRPFEVKEMFLEDILRTTGYTNKEMLKYKKEKQREEKQQTTLTEWYSAQENTFKPESQRQRAVASVSEEYDLLDDGGDAVFSQLTEKDVNCLEPWLIKEMDACLSDIWLHKDVDAFAQVFHLILTENVSVDYRHSETSATALMVAAGRGFTSQVEQLISMGANVHSKASNGWMALDWAKHFGQTEIVDLLESYSASLEFGNLDESSLVQTNGNDLSAEDRELLKAYHHSFDDEKVDLDLIMHLLYNICHSCDAGAILIFLPGYDEIVGLRDRILFDDKRFADNTHRYQVFMLHSNMQTSDQKKVLKNPPAGVRKIILSTNIAETSITVNDVVFVIDSGKVKEKSFDALNFVTMLKMVWISKASAIQRKGRAGRCRPGICFRLFSRLRFQNMLEFQTPELLRMPLQELCLHTKLLAPVNCTIADFLMKAPEPPPALIVRNAVQMLKTIDAMDAWEDLTELGYHLADLPVEPHLGKMVLCAVVLKCLDPILTIACTLAYRDPFVLPTQASQKRAAMLCRKRFTAGTFSDHMALLRAFQAWQKARSDGWERAFCEKNFLSQATMEIIIGMRTQLLGQLRASGFVRARGGGDIRDVNTNSENWAVVKAALVAGMYPNLVHVDRENVILTGPKEKKVRFHPTSVLSQPQYKKIPPANGQAAAIQALPTDWLIYDEMTRAHRIANIRCCSAVTPVTVLVFCGPARLASNALQEPSSFRADGIPNDSSDSEMEDRTTANLAALKLDEWLNFKLEPEAASLLLQLRQKWHSLFLRRMRAPSKPWSQVDEATIRAIIAVLSTEEQSAGLQQPSGIGQRPRPMSSEELPLASSWRSNNSRKSTADTEFADGSTTGERVLMKSPSPALHPPQKYKDRGILHPKRSTDDRSDQSSVKSTDSSSYPSPCASPSPPSSGKGSKSPSPRPNMPIRYFIMKSSNLRNLEISQQKGIWSTTPSNERKLNRAFWESSMVYLVFSVQGSGHFQGFSRMSSEIGREKSQDWGSAGLGGVFKVEWIRKESLPFQFAHHLLNPWNDNKKVQISRDGQELEPQVGEQLLQLWERLPLGEKTTSD
